Record: PubChem BioAssay AID1159508 (Drosophila RNAi Screening Center, 2015)
In all, the deposit lists 812 reagents; shown is an unselected part. 18 of all reagents (2.2%) count as active. 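Calls include both increased and decreased ATP; roughly one in four reagents has no third replicate value.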 Further read-outs or replicates are left out here. Not given: the amount of reagent.

Test: 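Overall cell fitness after RNAi as a quality check of the library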
Cells: Drosophila S2R+ cells
Reagents: long dsRNA against Drosophila genes
Duration: 5 days
Detection: 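Total ATP per well measured by luciferase luminescence after 5 days, expressed as z-scores for each replicate and as their average across up to three replicates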
Reading the numbers: mean ATP z-score: higher = more total ATP luminescence
Active means: In these data the active calls have mean ATP z-score at about -2 or lower, or at about 2 or higher
Meaning of the calls: active = strong ATP change (up or down); inactive = no strong ATP change

mean ATP z-score, by target gene and reagent
pAbp: DRSC07659 -0.592 inactive; DRSC30807 -0.312 inactive
eEF1alpha1: DRSC25133 -1.45 inactive; DRSC32105 -0.256 inactive
CG10466: DRSC02060 0.282 inactive; DRSC42670 -0.333 inactive
yps: DRSC25035 -1.07 inactive; DRSC40408 0.0103 inactive
Pep: DRSC11252 2.38 active; DRSC37986 -0.244 inactive
BicD: DRSC02006 0.092 inactive
nonA: DRSC27455 -0.7 inactive; DRSC41353 0.867 inactive
CG6094: DRSC22705 -1.02 inactive; DRSC29084 -0.914 inactive
SrpRalpha: DRSC20251 -0.0369 inactive; DRSC42641 -0.278 inactive
WDR79: DRSC03159 -0.808 inactive; DRSC34900 -0.163 inactive

Looked up above:
eEF1alpha1 [DRSC32105], mean ATP z-score → -0.256
Under “mean ATP z-score”, BicD [DRSC02006] is entered as 0.092
Result of CG6094 [DRSC22705] under “call”: inactive
Entry of pAbp [DRSC30807] in “mean ATP z-score”: -0.312

The listing continues:
mean ATP z-score, by target gene and reagent
Gld2: DRSC23037 1.61 inactive; DRSC27759 1.05 inactive
Top2: DRSC03459 -0.424 inactive; DRSC40691 0.738 inactive
Nelf-E: DRSC10567 0.828 inactive; DRSC34575 -0.696 inactive
snRNP-U1-70K: DRSC28803 1.79 inactive; DRSC34940 2.05 active
spoon: DRSC18299 0.128 inactive; DRSC24520 -0.696 inactive
eEFSec: DRSC04571 -0.173 inactive; DRSC42679 0.202 inactive
Adar: DRSC17725 0.337 inactive; DRSC42388 1.6 inactive
pelo: DRSC03588 1.31 inactive; DRSC42643 -0.0464 inactive
eEF1gamma: DRSC23655 -0.347 inactive; DRSC35716 0.595 inactive
CG3527: DRSC18307 0.402 inactive; DRSC28450 -0.235 inactive
CG4884: DRSC15671 -0.368 inactive; DRSC26329 0.714 inactive
